Among the data in PubChem BioAssay AID1487 (National Center for Advancing Translational Sciences (NCATS), 2009) are AC50 values, retold here.

The nature of the experiment: qHTS Assay for Modulators of Lamin A Splicing. Particulars: HeLa LMNA splicing GFP/RFP minigene ratio, 48 h. The essentials: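 S3 HeLa cells stably expressing lamin A-EGFP splicing minigene plus DsRed2, 600 cells/well, 48 h compound exposure at 37C. Laser-scanning cytometry; analysed as GFP (500-530 nm)/RFP (575-640 nm) total intensity ratio; 0.5% DMSO vehicle.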
In general terms: In qHTS, concentration-response curves come from the screen itself.

The mark [1] stands for this setting: measured here: GFP splicing reporter channel.
[2] abbreviates: measured here: RFP viability control channel.

The list shows a part of the results. Shown are side measurements of this screen, not its main read-out; they come without a call. The list favours compounds with an active or inconclusive main result. The note in brackets gives the kind of curve behind each potency; many fits are weak.

As a reminder, the AC50 is the concentration giving half of the maximal activity seen. As for `COc1ccc(N(C(=O)CCl)C(C(=O)NCCc2ccccc2)c2cccs2)cc1Cl` (stereo not drawn), the AC50 was 35.5 µM [falling, single point] under setting [1] and 35.5 µM [falling, single point] under setting [2]. On to `O=C(Nc1nc(-c2ccccc2)cs1)c1ccc2c(=O)n3c(nc2c1)CCCCC3`, for which the AC50 under setting [1] was 35.5 µM [falling, single point]. `CCOC(=O)CC(=O)CSc1nc(-c2ccccc2)cc(-c2ccccc2)c1C#N`: the AC50 under setting [2] is 11.2 µM [rising, single point]. The same measure, in the same setting: under `Fc1ccccc1N1CCN(Cc2nc(-c3ccc(Cl)cc3Cl)no2)CC1` stands 25.1 µM [rising, single point]. For the compound `Cc1ccc(-n2ncc3c(SCc4ccccn4)ncnc32)c(C)c1`, under setting [1], the AC50 is 0.794 µM [falling, full curve, poor fit]. As to `CC(NC(=S)Nc1ccc(S(=O)(=O)N2CCOCC2)cc1)C1CC2CCC1C2` (stereo not drawn), the AC50 under setting [2] is 14.1 µM [rising, single point]. For `O=C(CSc1nnc(Nc2ccccc2)s1)Nc1cccc(S(=O)(=O)N2CCCCC2)c1`, the AC50 under setting [1] was 10 µM [rising, partial curve, poor fit] and the AC50 under setting [2] is 20 µM [rising, partial curve, poor fit]. In the case of `O=C1/C(=C/c2cccc([N+](=O)[O-])c2)CCc2ccccc21`, the AC50 under setting [2] is 31.6 µM [rising, single point]. As to `O=C(Nc1ccccc1)N1CCC(c2nc(-c3ccc(S(=O)(=O)N4CCOCC4)cc3)no2)CC1`, the AC50 under setting [1] is 3.55 µM [falling, single point] and the AC50 under setting [2] is 35.5 µM [rising, single point]. As to `Cc1ccc(-n2c(=S)[nH]c3sc4c(c3c2=O)CCc2ccccc2-4)cc1`, the AC50 under setting [1] is 3.55 µM [falling, full curve, poor fit]. On to `O=[N+]([O-])c1ccccc1CN1CCN(Cc2c[nH]c3ccccc23)CC1`, for which, under setting [1], the AC50 is 17.8 µM [falling, partial curve].

With `CC1(C)S[C@@H]2[C@H](NC(=O)C(N)c3ccccc3)C(=O)N2[C@H]1C(=O)O` (stereo partly drawn), the AC50 runs as follows: under setting [1], 1.12 µM [falling, partial curve, poor fit]; under setting [2], 1 µM [falling, single point]. With `Cc1nc2cc(NC(=O)Nc3cccc4ccccc34)ccc2n1C`, under setting [1], the AC50 was 0.0141 µM [rising, full curve, poor fit]. For the compound `COc1cc(NC(=O)CCc2c(C)nn(-c3ccc(N4CCOCC4)nn3)c2C)cc(OC)c1OC`, the AC50 under setting [2] is 4.47 µM [falling, full curve, poor fit].

Turning to `COc1ccc(NC(=S)N(CCc2c(C)[nH]c3ccccc23)Cc2ccco2)cc1`, the AC50 under setting [2] is 12.6 µM [rising, partial curve].

Take `Cc1cc(/C=C(\C#N)C(=O)Nc2ccccc2)c(C)n1-c1cccnc1`: under setting [2], the AC50 was 14.1 µM [rising, partial curve].

Consider `CCC(C)NC(=O)CSc1nc2cc3c(cc2c(=O)n1CCCC(=O)NCCc1ccc(OC)c(OC)c1)OCO3` (stereo not drawn), for which the half-maximal activity concentration (AC50) under setting [2] was 0.447 µM [falling, single point]. As for `Cc1ccccc1CN(CC(=O)Nc1cccc([N+](=O)[O-])c1)S(=O)(=O)c1ccc(Cl)cc1`, the AC50 under setting [2] is 35.5 µM [rising, single point]. Consider `COc1ccc(F)cc1C(=O)C1CCCN(Cc2cccn2-c2cccnc2)C1` (stereo not drawn), for which, under setting [2], the AC50 was 35.5 µM [falling, single point].

As for `CC(=O)OCC1=C(C(=O)O)N2C(=O)[C@@H](NC(=O)CSc3ccncc3)[C@H]2SC1`, the AC50 runs as follows: under setting [1], 0.0631 µM [rising, full curve, poor fit]; under setting [2], 5.62 µM [falling, partial curve, poor fit]. Regarding `Cc1cccc(C(=O)CC(=O)c2cc(Cl)ccc2O)c1`, under setting [2], the AC50 is 10 µM [rising, partial curve]. Same read-out and setting: as for `Cc1ccc(-n2c(SCC(=O)Nc3ncc(Cl)cc3Cl)nc3ccccc32)cc1`, the figure is 0.891 µM [rising, full curve]. For the compound `Clc1ccc(OCCN2CCCCC2)cc1Cl`, the AC50 under setting [1] is 0.1 µM [rising, full curve, poor fit]. As to `O=C(Nc1cccs1)Nc1c(F)c(F)cc(F)c1F`, under setting [2], the AC50 is 20 µM [rising, single point]. On to `CCc1ccc(CNC(=O)c2c3c(nc4ccccc24)C(=O)N(C2CCCCC2)C3)cc1`, for which the AC50 under setting [1] is 25.1 µM [falling, partial curve].

Take `O=C(Oc1ccc2c(c1)OCO2)C12CC3CC(CC(C3)C1)C2`: under setting [2], the AC50 is 31.6 µM [rising, single point].

Regarding `Cc1nc(NCC2CCCO2)c2nnn(Cc3ccccc3Cl)c2n1` (stereo not drawn), the concentration at half-maximal activity (AC50) runs as follows: under setting [1], 35.5 µM [rising, single point]; under setting [2], 35.5 µM [rising, single point]. Regarding `CN1C(=O)/C(=C/c2cn(CC(=O)NCc3ccco3)c3ccccc23)NC1=S`, the AC50 is, setting by setting: under setting [1], 35.5 µM [falling, single point]; under setting [2], 35.5 µM [falling, single point].

For `Cc1cc(N2CCN(C)CC2)nc2ccc(NC(=S)N3CCOCC3)cc12`, the AC50 under setting [1] was 12.6 µM [falling, partial curve, poor fit] and the AC50 under setting [2] is 7.94 µM [falling, partial curve].

As for `C=CCOC(=O)c1[nH]c2c(c1C)C(=O)CC(c1cc(OC)c(OC)c(OC)c1)C2` (stereo not drawn), the AC50 under setting [2] was 3.55 µM [rising, full curve]. `Cc1ccc(Cn2c(CN3CCC(C(=O)NCc4ccccc4C)CC3)cc3ccccc32)cc1`: the AC50 reads like this: under setting [1], 2.51 µM [falling, full curve, poor fit]; under setting [2], 0.0708 µM [falling, full curve]. For the compound `CC1=Nc2ccc(Br)cc2C(c2ccccc2)N1CC(=O)NN` (stereo not drawn), the AC50 under setting [2] is 2.51 µM [falling, partial curve, poor fit]. On to `COC(=O)c1ccc(NC(=O)CCS(=O)(=O)c2ccc(Br)s2)cc1`, for which the AC50 under setting [1] was 12.6 µM [rising, partial curve] and the AC50 under setting [2] was 8.91 µM [rising, partial curve, poor fit].

In the case of `Cc1nc(N2CCCC2)ncc1C(=O)NCc1cccc(Cl)c1`, under setting [1], the AC50 is 8.91 µM [rising, partial curve]. Turning to `O=C(Nc1ccccc1)/C(=C/c1ccccc1)NC(=O)c1ccco1`, the AC50 under setting [1] is 35.5 µM [rising, partial curve, poor fit] and the AC50 under setting [2] is 12.6 µM [rising, partial curve]. `COc1ccccc1N1CCN(C(=O)Cn2c(=O)n3nc(-c4ccc(C)cc4)nc3c3ccccc32)CC1`: the AC50 by setting is: under setting [1], 0.0794 µM [rising, partial curve, poor fit]; under setting [2], 6.31 µM [rising, single point]. For the compound `COc1cc(/C=C/C(=O)OCC(=O)NCc2cccs2)ccc1OCC#N`, the AC50 under setting [2] was 0.00316 µM [falling, full curve, poor fit]. Still for that read-out and setting: as for `CCCn1c(=O)c2ccccc2n2c(SCCOc3ccc(OC)cc3)nnc12`, the figure is 20 µM [rising, single point]. Still for that read-out and setting: under `CCc1ccc(NC(=O)CSc2nc3ccccc3nc2Cc2ccc(C)cc2)cc1` stands 31.6 µM [falling, single point]. As for `CCc1ccc2c(c1)C(c1ccc([N+](=O)[O-])cc1)=NNC(c1ccc(Br)cc1)=N2`, the AC50 by setting is: under setting [1], 0.0891 µM [falling, single point]; under setting [2], 0.0178 µM [falling, single point].

For `CCOC(=O)Cn1cnc2c(nnn2-c2ccc(C)cc2)c1=O`, under setting [2], the AC50 is 1.58 µM [falling, partial curve, poor fit]. As for `COc1ccc(-c2nnc(N(C)C(=O)c3cccnc3)s2)cc1`, the AC50 under setting [1] is 4.47 µM [rising, full curve, poor fit].

Consider `CCCCCCCCCCCCCCC(C(=O)OC)C(O)(CC(=O)OC)C(=O)OC` (stereo not drawn), for which the AC50 under setting [1] was 28.2 µM [falling, single point] and the AC50 under setting [2] is 31.6 µM [falling, single point]. Turning to `Cc1ccc2[nH]c3c(=O)n(CC(=O)NCc4ccco4)ncc3c2c1`, under setting [1], the AC50 is 35.5 µM [rising, single point]. For the compound `C[C@H]1Cc2c(COc3ccccc3)nc3c(c2CO1)CN(S(=O)(=O)c1ccc2c(c1)OCCN2C)CC3`, the AC50 under setting [2] is 0.002 µM [falling, full curve, poor fit]. `CCN(C(=S)Nc1ccc(C(C)=O)cc1)C1CCCCC1`: the AC50 was 6.31 µM [falling, partial curve] under setting [1] and 5.01 µM [falling, partial curve] under setting [2]. For `Cc1ccc(OCCSc2nnc(-c3cccs3)o2)cc1Cl`, the AC50 under setting [2] was 0.00316 µM [falling, full curve, poor fit]. As to `COC(=O)NC1(C(F)(F)F)C(=O)Nc2c1c(=O)n(C)c(=O)n2C` (stereo not drawn), the AC50 under setting [1] is 0.398 µM [falling, full curve]. On to `COc1ccc2[nH]cc(CCNc3ccnc(-c4ccc5c(c4)OCO5)n3)c2c1`, for which the AC50 was 7.94 µM [falling, partial curve] under setting [1] and 11.2 µM [falling, single point] under setting [2]. `CCCCNS(=O)(=O)c1ccc2nc(SCC(=O)Nc3ccccc3)[nH]c2c1`: the AC50 was 17.8 µM [rising, partial curve] under setting [1] and 35.5 µM [rising, partial curve] under setting [2].

In the case of `Cc1ccc(Nc2ncnc3c2cnn3C)cc1`, under setting [1], the AC50 is 20 µM [falling, partial curve, poor fit]. Regarding `CCN(CC)S(=O)(=O)c1cc(NC(=O)C(C)N2CCN(Cc3ccc4c(c3)OCO4)CC2)ccc1C` (stereo not drawn), the AC50 under setting [1] is 5.62 µM [rising, partial curve] and the AC50 under setting [2] is 17.8 µM [rising, partial curve].

Take `Cc1cc(C)cc(NC(=O)CC2NCCNC2=O)c1` (stereo not drawn): the AC50 under setting [2] is 0.112 µM [falling, full curve, poor fit]. With `CN(C(=O)CSc1nc2ccccc2n1Cc1ccccc1C#N)c1ccccc1`, the AC50 is 35.5 µM [rising, single point] under setting [1] and 11.2 µM [rising, partial curve, poor fit] under setting [2].
